Results: patent US20110171205A1
These are yes or no findings as the source states them, for the method shown. Binding seen in cells or lysates may run through a third protein. Some results given as binding are weak or reduced against the parent protein; the word gives no strength. For part of these data: Where a sequence is shown, tags or fusion partners need not be part of it.

The chains behind the UniProt entries cited, without tags or fusion partners.
UniProt Q12791: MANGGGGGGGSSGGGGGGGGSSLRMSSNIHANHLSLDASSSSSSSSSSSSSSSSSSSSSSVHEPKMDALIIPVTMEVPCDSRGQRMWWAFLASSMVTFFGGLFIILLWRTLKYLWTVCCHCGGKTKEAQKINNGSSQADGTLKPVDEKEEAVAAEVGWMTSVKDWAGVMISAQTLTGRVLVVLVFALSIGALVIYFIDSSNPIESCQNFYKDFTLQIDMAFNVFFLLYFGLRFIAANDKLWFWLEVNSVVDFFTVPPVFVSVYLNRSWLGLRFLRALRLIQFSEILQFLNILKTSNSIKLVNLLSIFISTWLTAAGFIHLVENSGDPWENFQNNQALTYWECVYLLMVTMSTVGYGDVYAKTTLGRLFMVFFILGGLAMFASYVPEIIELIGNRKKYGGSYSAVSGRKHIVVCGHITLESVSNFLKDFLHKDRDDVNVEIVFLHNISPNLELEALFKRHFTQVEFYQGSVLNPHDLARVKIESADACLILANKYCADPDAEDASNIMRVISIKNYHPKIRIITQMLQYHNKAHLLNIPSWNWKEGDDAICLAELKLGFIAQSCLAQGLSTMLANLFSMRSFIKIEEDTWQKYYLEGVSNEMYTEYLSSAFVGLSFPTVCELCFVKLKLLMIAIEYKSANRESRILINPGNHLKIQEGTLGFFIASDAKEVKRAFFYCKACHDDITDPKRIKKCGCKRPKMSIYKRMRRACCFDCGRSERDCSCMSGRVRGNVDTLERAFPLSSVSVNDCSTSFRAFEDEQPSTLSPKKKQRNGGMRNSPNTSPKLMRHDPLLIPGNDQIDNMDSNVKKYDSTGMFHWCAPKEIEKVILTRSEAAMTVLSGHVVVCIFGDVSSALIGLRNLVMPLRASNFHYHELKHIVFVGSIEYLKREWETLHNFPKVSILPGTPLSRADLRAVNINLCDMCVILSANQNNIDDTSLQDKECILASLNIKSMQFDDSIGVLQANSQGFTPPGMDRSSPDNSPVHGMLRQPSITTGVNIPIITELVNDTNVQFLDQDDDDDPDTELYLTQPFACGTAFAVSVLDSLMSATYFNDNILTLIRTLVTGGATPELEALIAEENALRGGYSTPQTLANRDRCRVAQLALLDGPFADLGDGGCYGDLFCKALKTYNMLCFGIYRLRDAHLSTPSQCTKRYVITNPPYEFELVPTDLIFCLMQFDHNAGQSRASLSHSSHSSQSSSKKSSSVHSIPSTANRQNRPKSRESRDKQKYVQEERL
UniProt Q08460: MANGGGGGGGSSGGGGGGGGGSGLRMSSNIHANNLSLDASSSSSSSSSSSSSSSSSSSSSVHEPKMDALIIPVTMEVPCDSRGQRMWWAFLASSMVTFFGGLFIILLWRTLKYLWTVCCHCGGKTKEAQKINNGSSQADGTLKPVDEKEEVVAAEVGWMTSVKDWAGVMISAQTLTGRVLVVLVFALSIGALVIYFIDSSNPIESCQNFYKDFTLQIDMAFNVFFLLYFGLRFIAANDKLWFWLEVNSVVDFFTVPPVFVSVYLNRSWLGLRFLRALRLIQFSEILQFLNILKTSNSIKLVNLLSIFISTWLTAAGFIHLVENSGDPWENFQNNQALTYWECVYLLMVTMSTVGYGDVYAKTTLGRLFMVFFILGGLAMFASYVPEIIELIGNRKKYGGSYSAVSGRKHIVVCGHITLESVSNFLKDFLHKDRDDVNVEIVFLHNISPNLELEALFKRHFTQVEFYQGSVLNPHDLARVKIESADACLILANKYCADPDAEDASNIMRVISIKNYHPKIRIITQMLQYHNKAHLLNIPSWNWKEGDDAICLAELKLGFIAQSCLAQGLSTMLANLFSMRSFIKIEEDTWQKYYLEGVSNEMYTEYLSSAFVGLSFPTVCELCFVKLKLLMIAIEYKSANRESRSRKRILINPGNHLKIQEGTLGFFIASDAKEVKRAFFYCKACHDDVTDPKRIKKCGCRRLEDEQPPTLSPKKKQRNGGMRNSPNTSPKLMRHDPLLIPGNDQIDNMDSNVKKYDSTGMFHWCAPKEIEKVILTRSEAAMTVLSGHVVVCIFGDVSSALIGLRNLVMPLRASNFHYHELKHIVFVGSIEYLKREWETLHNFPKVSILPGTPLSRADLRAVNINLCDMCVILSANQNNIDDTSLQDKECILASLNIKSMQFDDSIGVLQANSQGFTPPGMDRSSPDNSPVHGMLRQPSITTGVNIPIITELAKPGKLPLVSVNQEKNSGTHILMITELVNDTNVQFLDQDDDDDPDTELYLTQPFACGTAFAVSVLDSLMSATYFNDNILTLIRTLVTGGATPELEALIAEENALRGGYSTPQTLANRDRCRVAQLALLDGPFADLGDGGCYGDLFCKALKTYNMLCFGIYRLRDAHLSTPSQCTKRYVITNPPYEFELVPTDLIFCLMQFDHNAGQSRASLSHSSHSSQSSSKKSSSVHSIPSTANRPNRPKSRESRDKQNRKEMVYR

Key:
[1] = target: hSlo, human pore-forming α-subunit of the high conductance calcium-activated potassium channel (maxi-K) (human) (UniProt Q12791); experiment: co-immunoprecipitation
[2] = target: hSlo, human pore-forming α-subunit of the high conductance calcium-activated potassium channel (maxi-K) (human) (UniProt Q12791); experiment: co-immunoprecipitation from co-transfected HEK 293 cells
[3] = target: mSlo, mouse pore-forming α-subunit of the high conductance calcium-activated potassium channel (maxi-K) (mouse) (UniProt Q08460); experiment: co-immunoprecipitation from co-transfected HEK293 cells: mSlo precipitated with antibodies against the α-subunit, Western blot with anti-V5 monoclonal antibody
[4] = target: hSlo, human pore-forming α-subunit of the high conductance calcium-activated potassium channel (maxi-K) (human) (UniProt Q12791); experiment: co-immunoprecipitation from co-transfected HEK 293 cells, Western blot; also seen in the reverse direction (precipitating epitope-tagged ∃4, probing with anti-Slowpoke antibodies); the higher molecular weight h∃4 band is enriched in the hSlo immunoprecipitate
[5] = target: mSlo, mouse pore-forming α-subunit of the high conductance calcium-activated potassium channel (maxi-K) (mouse) (UniProt Q08460); experiment: co-immunoprecipitation
[6] = target: mSlo, mouse pore-forming α-subunit of the high conductance calcium-activated potassium channel (maxi-K) (mouse) (UniProt Q08460); experiment: co-immunoprecipitation from co-transfected cells, Western blot; the higher molecular weight m∃4 band preferentially co-immunoprecipitates with mSlo

Measured: binding

B1: V5 epitope-tagged human C7F2 potassium channel β-subunit (protein, not shown: small tags and cut ends)
chain: MAKLRVAYEYTEAEDKSIRLGLFLIISGVVSLFIFGFCWLSPALQDLQATEANCTVLSVQQIGEVFECTFTCGADCRGTSQYPCVQVYVNNSESNSRALLHSDEHQLLTNPKCSYIPPCKRENQKNLESVMNWQQYWKDEIGSQPFTCYFNQHQRPDDVLLHRTHDEIVLLHCFLWPLVTFVVGVLIVVLTICAKSLAVKAEAMKKRKFS
binds: [1] | [2] | [3] | [4]

B2: mouse Slowpoke ∃4 subunit (protein, UniProt Q9JIN6 1-210, looked up, not shown: small tags and cut ends)
chain: MAKLRVSYEYTEAEDKSIRLGLFLIVSGILSLFIFGFCWLSPALQDLQATAANCTVLSVQQIGEVFECTFTCGTDCRGTSQYPCVQVYVNNSESNSRALLHSDQHQLLTNPKCSYIPPCKRENQKNSESVMNWQQYWKDEIGSQPFTCYFNQHQRPEDVLLQRTHDEIALLHCFLWPVVAFVVGVLIVVLTICAKSLAVKAEAMKKRKFS
binds: [5] | [6]
